Screening data, single-dose tests

Results are given as percent effect. The controls that fix the scale are not given in the record; negative values are as filed. Compounds were drawn at random from those tested, without regard to their results. Two or more numbers in one place are separate tests of the same structure; such repeats can differ widely. A dash means the value is not listed here; it may have been measured.

Toxoplasma: 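Assay of Toxoplasma gondii numbers, read through their beta-galactosidase reporter with a colour substrate. Tested at 10 µM. The record gives no direction; the compounds picked for IC50 retests had high values, so higher reads as fewer parasites. Size under these conditions: about 67,000 compounds, about 260 of them at 50% or above in at least one test.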
Leishmania in macrophages: 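Cell assay of Leishmania donovani living inside macrophages; the read-out is not stated. Tested at 30 µM. The record gives no direction; compounds that gave an IC50 in retests scored well above the rest, so higher reads as stronger inhibition. Of about 69,000 compounds tested this way, about 1,000 (1.5%) reached 50% or more in at least one test.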

compound | Toxoplasma | Leishmania in macrophages
Cl.N#Cc1ccc(NC(=O)C2CSCN2)cc1 (stereo not given) | -23.63% | 0.03454%
Cc1cc(N(C)CCn2ccnc2C)n2nccc2n1 | 2.594% | 14.13%
[H][C@]12CC[C@]([H])(CN(Cc3cccnc3N)C1)N(CC=C(C)C)C2=O | -1.687% | -22.03%
CCN(CC)Cc1cc(=O)n2c(n1)CN(C(=O)c1ccc[nH]1)CCC2 | 3.899% | 36.34%
CC(C)c1nccn1C1CCCN(C(=O)C2=NN(C)C(=O)CC2)C1 (stereo not given) | 5.26% | 24.63%
COC(=O)CCNC(=O)c1ccc(NC(=O)N(C)CC(C)(C)C)cc1 | 17.52% | 17.94%
CC(=O)N1CCC(c2cncc(Cl)n2)CC1 | -0.1408% | -21.87%
Cn1cc(C2CCCN2C(=O)COCCOc2ccccc2)cn1 (stereo not given) | -2.712% | 19.45%
CC(C)(C)C(C#N)NC(=O)c1ccc(Oc2cccnc2)cc1 (stereo not given) | 4.797% | 3.899%
FC(F)Sc1ccc(NCc2nnc(C3CC3)o2)cc1 | -13.43% | 3.441%
NC1(c2nc(-c3cccs3)cc(=O)[nH]2)CCCC1 | 5.982% | -20.35%
Cc1ccc(-c2ccc(Cl)nn2)cc1S(N)(=O)=O | -2.143% | -3.871%
COCc1nc(CNc2cccc(-c3ncon3)c2)cs1 | -1.535% | 70.63%
CCN1CCCC(CNC(=O)C2(c3cccc(Cl)c3)CC2)C1 (stereo not given) | 9.843% | 26.13%
O=C(O)C(F)(F)F.[H][C@@]12CCCO[C@]1([H])[C@H](N(C)C)CN2C(=O)c1ccc(C#N)cc1 | -1.011% | 10.23%
O=C(O)C(F)(F)F.[H][C@@]12CCN(Cc3ccsc3)C[C@@]1([H])[C@H](C(=O)NC)CCO2 | 2.284% | 6.367%
CCc1ccc(CN(C)C(=O)c2cnc3c(c2)nc(N)n3CC)nc1 | -10.43% | 7.578%
Cl.[H][C@@]12CCCCN[C@]1([H])[C@@H](c1ccccc1)CCN2S(=O)(=O)N(CC)CC | -12.79% | 16.74% and 15.37%
COCCN1CCc2cc(C(=O)NC(C)C)c(NCC(C)C)nc2CC1.O=C(O)C(F)(F)F.O=C(O)C(F)(F)F | -3.486% | 14.33%
CCN1CCn2nc(CCC(=O)N3CCCC3)cc2C1 | -6.679% | -21.22%
Cc1noc(C)c1CN(C)CCc1nc(-c2cccc(Cl)c2)no1 | 3.823% | -13.11%
Cc1cc(CNC(=O)NCC(O)c2cccc(C(F)(F)F)c2)no1 (stereo not given) | -5.208% | 12.63%
CCN(Cc1nc2c(cnn2C)c(=O)[nH]1)Cc1ccco1 | -3.977% | 24.63%
O=C(NCc1ccccc1)N1CCC(Oc2ncccc2Br)CC1 | -9.155% | 4.85%
CCN(CC)C1(Cc2cc(-c3ccccn3)on2)COC1 | -2.702% | 12.25%
[H][C@@]12CS(=O)(=O)C[C@]1([H])N(C(=O)c1cccc(C)n1)CCN2CCC | 1.424% | 5.022%
CS(=O)(=O)c1cnc(CC2CC2)nc1C1CCCNC1 (stereo not given) | 19.03% | -2.091%
COc1nccc(N2CC[C@H](N3CCOCC3)[C@H](CCCO)C2)c1C#N | -1.034% | -12.92%
O=C(c1n[nH]c(=O)c2ccccc12)N1CCCCC1c1ccn[nH]1 (stereo not given) | 0.7047% | 11.99%
FC(F)(F)C1CCCn2c(CNCc3cccs3)nnc21 (stereo not given) | - | 8.225%
[H][C@@]12COC[C@]1(COc1ccc(C#N)cn1)CN(Cc1scnc1C)C2 | 20.67% | 35.48%
COc1ccc(COCC(O)CN2CCC(c3ccn[nH]3)CC2)cc1 (stereo not given) | -2.234% | 39.75%
CCOCCCC(=O)Nc1cc(C(N)=O)ccc1N1CCCCC1 | -8.619% | 17.32%
Cc1nn(C)c(C)c1C1CCCN1Cc1nc2ccccc2n1C (stereo not given) | 8.381% | 41.39%
CCOC(=O)CC1CCCCN1C(=O)c1cccc2ccnn12 (stereo not given) | -14.13% | 26.1%
CC(NC(=O)N1CCC(n2cncn2)CC1)c1ccc(F)cc1F (stereo not given) | - | 20.98%
O=C(c1cc(-c2ccco2)cs1)N1CCOCC1 | -13.33% | 43.28%
Cn1ccc(C(=O)Nc2cc(F)ccc2OCC2CCCO2)cc1=O (stereo not given) | 8.761% | 8.708%
CCn1ccnc1CN1CCN(C(C)C(=O)NC2CCCC2)CC1 (stereo not given) | 6.062% | 20.3%
CC(C)CN1CCc2[nH]cnc2C12CCN(C(=O)c1cnn(C)c1)CC2 | - | 19.65%
CN(C)CCN(C)C(=O)c1ccccc1-n1cc(CN(C)C)cn1 | -40.17% | 15.68% and 3.065%
CCCOCCN1CCc2[nH]c(-c3ccc(OC)cc3)nc2C1 | 1.408% | 20.36%

3 of the entries, repeated:

With CCn1ccnc1CN1CCN(C(C)C(=O)NC2CCCC2)CC1 (stereo not given) the screen gave Toxoplasma: 6.062%; Leishmania in macrophages: 20.3%.
With O=C(O)C(F)(F)F.[H][C@@]12CCN(Cc3ccsc3)C[C@@]1([H])[C@H](C(=O)NC)CCO2 the screen gave Toxoplasma: 2.284%; Leishmania in macrophages: 6.367%.
With CCOCCCC(=O)Nc1cc(C(N)=O)ccc1N1CCCCC1 the screen gave Toxoplasma: -8.619%; Leishmania in macrophages: 17.32%.

Source: ChEMBL document CHEMBL3988442, “University of Dundee, Small-Polar-MMV Screening Library” (2021).